Reference: article PMC11976418
Results are given in words; binding and its absence hold for the method and conditions named. Binding seen in cells or lysates may run through a third protein. Some binding calls cover weakened binding; strength is not graded here. Tags and fused reporters may be left off the sequences shown.

Chains of the proteins cited; added tags and fusions are not shown.
UniProt Q13485: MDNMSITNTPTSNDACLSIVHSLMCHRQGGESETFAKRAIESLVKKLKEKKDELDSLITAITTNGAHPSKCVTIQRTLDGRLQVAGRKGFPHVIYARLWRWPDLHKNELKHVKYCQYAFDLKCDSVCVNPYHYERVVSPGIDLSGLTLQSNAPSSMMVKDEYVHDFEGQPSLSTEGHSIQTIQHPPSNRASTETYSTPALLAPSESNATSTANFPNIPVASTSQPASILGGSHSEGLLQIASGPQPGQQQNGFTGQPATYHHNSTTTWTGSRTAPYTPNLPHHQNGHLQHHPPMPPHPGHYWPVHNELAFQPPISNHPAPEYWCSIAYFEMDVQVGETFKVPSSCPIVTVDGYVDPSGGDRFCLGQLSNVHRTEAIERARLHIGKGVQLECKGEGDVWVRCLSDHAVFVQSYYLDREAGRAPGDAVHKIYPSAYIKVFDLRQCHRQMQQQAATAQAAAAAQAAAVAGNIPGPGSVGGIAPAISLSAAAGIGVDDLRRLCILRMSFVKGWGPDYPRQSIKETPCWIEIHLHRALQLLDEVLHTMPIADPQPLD

Biological target: MYC-tagged SMAD4 (UniProt Q13485)
Assay: co-IP; FLAG-TINAGL1 and MYC-SMAD4 co-transfected into human primary intestinal fibroblasts; lysates incubated with anti-MYC and anti-FLAG antibodies overnight at 4 °C, Protein A/G beads, Western blot with anti-FLAG and anti-MYC; methods say lysates were prepared after treatment with TINAGL1 recombinant protein

binding: binds
B1: FLAG-tagged TINAGL1 (Tubulointerstitial Nephritis Antigen-Like 1) (protein, UniProt Q9GZM7 22-467)
chain: AQQGRGRRELAPGLHLRGIRDAGGRYCQEQDLCCRGRADDCALPYLGAICYCDLFCNRTVSDCCPDFWDFCLGVPPPFPPIQGCMHGGRIYPVLGTYWDNCNRCTCQENRQWQCDQEPCLVDPDMIKAINQGNYGWQAGNHSAFWGMTLDEGIRYRLGTIRPSSSVMNMHEIYTVLNPGEVLPTAFEASEKWPNLIHEPLDQGNCAGSWAFSTAAVASDRVSIHSLGHMTPVLSPQNLLSCDTHQQQGCRGGRLDGAWWFLRRRGVVSDHCYPFSGRERDEAGPAPPCMMHSRAMGRGKRQATAHCPNSYVNNNDIYQVTPVYRLGSNDKEIMKELMENGPVQALMEVHEDFFLYKGGIYSHTPVSLGRPERYRRHGTHSVKITGWGEETLPDGRTLKYWTAANSWGPAWGERGHFRIVRGVNECDIESFVLGVWGRVGMEDMGHH
